Laboratory results published in publication PMC9882672.
No constants are given. Whether binding was seen depends on the method and setting. Binding seen in cells or lysates may run through a third protein. Some results given as binding are weak or reduced against the parent protein; the word gives no strength.

Molecular target: T1, hephaestin (human (endogenous in iPSC-derived ECs)) (UniProt Q9BQS7)
T1 sequence: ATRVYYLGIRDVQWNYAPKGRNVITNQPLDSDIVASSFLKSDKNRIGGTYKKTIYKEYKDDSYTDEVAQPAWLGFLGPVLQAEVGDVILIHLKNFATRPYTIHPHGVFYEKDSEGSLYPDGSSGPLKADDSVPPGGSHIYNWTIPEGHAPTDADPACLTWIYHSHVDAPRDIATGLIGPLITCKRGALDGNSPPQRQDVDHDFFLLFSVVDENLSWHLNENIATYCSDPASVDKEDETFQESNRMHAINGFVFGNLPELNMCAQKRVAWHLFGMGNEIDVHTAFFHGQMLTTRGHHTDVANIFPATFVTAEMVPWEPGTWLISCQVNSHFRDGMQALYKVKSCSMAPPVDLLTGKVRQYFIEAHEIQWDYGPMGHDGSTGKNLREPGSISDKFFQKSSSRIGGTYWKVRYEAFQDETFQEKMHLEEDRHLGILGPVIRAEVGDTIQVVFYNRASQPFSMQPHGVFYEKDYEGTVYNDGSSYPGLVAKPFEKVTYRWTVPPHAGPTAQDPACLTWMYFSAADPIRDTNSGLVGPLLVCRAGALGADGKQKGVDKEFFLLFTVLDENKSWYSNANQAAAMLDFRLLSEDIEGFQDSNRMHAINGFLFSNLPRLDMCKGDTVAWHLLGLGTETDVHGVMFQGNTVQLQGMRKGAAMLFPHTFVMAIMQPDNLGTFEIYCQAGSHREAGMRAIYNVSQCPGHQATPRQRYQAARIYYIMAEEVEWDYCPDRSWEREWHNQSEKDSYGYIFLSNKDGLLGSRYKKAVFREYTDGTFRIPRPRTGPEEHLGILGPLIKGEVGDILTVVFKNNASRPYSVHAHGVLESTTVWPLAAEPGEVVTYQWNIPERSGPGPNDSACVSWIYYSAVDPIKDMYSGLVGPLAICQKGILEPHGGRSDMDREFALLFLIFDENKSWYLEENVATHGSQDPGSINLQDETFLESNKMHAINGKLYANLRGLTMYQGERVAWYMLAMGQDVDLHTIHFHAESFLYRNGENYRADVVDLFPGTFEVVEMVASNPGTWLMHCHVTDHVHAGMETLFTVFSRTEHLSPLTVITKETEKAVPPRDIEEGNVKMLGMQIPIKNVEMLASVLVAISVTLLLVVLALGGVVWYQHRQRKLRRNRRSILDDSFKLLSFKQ
Assay: co-IP; iPSC-derived ECs, lysed; Protein G magnetic beads with anti-Heph antibody; endogenous Fpn with endogenous Heph

B1: ferroportin (protein, UniProt Q9NP59 1-571)
chain: MTRAGDHNRQRGCCGSLADYLTSAKFLLYLGHSLSTWGDRMWHFAVSVFLVELYGNSLLLTAVYGLVVAGSVLVLGAIIGDWVDKNARLKVAQTSLVVQNVSVILCGIILMMVFLHKHELLTMYHGWVLTSCYILIITIANIANLASTATAITIQRDWIVVVAGEDRSKLANMNATIRRIDQLTNILAPMAVGQIMTFGSPVIGCGFISGWNLVSMCVEYVLLWKVYQKTPALAVKAGLKEEETELKQLNLHKDTEPKPLEGTHLMGVKDSNIHELEHEQEPTCASQMAEPFRTFRDGWVSYYNQPVFLAGMGLAFLYMTVLGFDCITTGYAYTQGLSGSILSILMGASAITGIMGTVAFTWLRRKCGLVRTGLISGLAQLSCLILCVISVFMPGSPLDLSVSPFEDIRSRFIQGESITPTKIPEITTEIYMSNGSNSANIVPETSPESVPIISVSLLFAGVIAARIGLWSFDLTVTQLLQENVIESERGIINGVQNSMNYLLDLLHFIMVILAPNPEAFGLLVLISVSFVAMGHIMYFRFAQNTLGNKLFACGPDAKEVRKENQANTSVV
  binding: binds
